# Hit rate of the full screen: of about 330,000 compounds, about 7,700 (2.3%) were called active. The inconclusive results got no clear call from the source; some entries with a clear call stand among them for comparison. Calls follow the shape of the dose curve; as a rule, active = well fitted inhibition curve with a large enough effect; inconclusive = small, poorly fitted or top-dose-only effect, or effect the other way; inactive = flat fitted curve, though single readings scatter. Potencies beside an inconclusive call are fits to weak or partial responses and may not hold up.
# Assay: qHTS screen for small molecules that inhibit ELG1-dependent DNA repair in human embryonic kidney (HEK293T) cells expressing luciferase-tagged ELG1; also: nearly all actives have a fitted effect of over 55% in size
# Conditions: HEK293T ELG1-luciferase reporter, luminescence, 16 h, DNA damage induced by 5-fluorouridine; activity change, negative = inhibition: at 46.1 µM (top of the series)
# In short: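 Step one: seed 2,000 cells per well. Step two: pin-transfer compound or DMSO alongside 5-fluorouridine. Step three: incubate 16 hr, 37 °C, 5% CO2. Step four: add ONE-Glo, wait 30 min, read luminescence.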
# % is scaled to controls: 0 for no effect and ±100 for the full control effect; potency is read from the fitted curve at half-maximal effect.
SMILES,Potency,"activity change, negative = inhibition"
COc1ccc(/C=N/NC(=O)c2cccnc2)cc1CSc1ccccn1,"inconclusive: 6.51 µM [inhibitor, full curve, poor fit]",
COc1ccc(/C=N/NC(N)=S)cc1OC(=O)c1ccccc1,"inconclusive: 29.1 µM [inhibitor, single point]",
C=CCOc1ccccc1CN1CCCN(C)CC1,,inactive: -5.69%
COc1ccc(OC)c(N2C(=O)CC(NNC(=O)c3ccc4c(c3)OCO4)C2=O)c1 (configuration not stated),,inactive: 0.653%
O=C(O)c1cccc(-c2ccc(/C=N/NC(=O)C3COc4ccccc4O3)o2)c1 (configuration not stated),"inconclusive: 16.4 µM [activator, single point]",
CN(CC(=O)Nc1ccccc1Cl)C(=O)Cn1cc(C(F)(F)F)ccc1=O,,inactive: 20.5%
O=C(NC(=S)Nc1ccccn1)c1cncc(Br)c1,"inconclusive: 20.6 µM [activator, single point]",
Cc1noc(NS(=O)(=O)c2ccc(NC(=O)/C=C/c3ccc(Br)cc3)cc2)c1C,,inactive: 4.4%
Cc1nn(Cc2ccc(F)cc2)c(C)c1NC(=O)c1noc2c1CCCCC2,active: 18.4 µM,
COc1ccc(-c2cc(-c3n[nH]c(=S)n3-c3ccccc3OC)[nH]n2)cc1,,inactive: 14.5%
CC(C)CNC(=S)Nc1ccccc1F,,inactive: 14.8%
O=C(Cn1cc(C(=O)c2ccco2)c2ccccc21)Nc1ccccc1F,"inconclusive: 29.1 µM [inhibitor, partial curve, poor fit]",
COc1ccc(/C=C/C(=O)c2ccc3c(c2)OCCO3)cc1[N+](=O)[O-],"inconclusive: 18.4 µM [activator, single point]",
COc1ccc(NC(=O)c2cc3c(-c4ccc(OC)c(OC)c4)nn(C)c3s2)cc1OC,active: 1.64 µM,
COc1ccc(N=C2S/C(=C\c3ccc(OCC(=O)O)cc3)C(=O)N2CCc2c[nH]c3ccccc23)cc1,"inconclusive: 18.3 µM [activator, partial curve, poor fit]",
C=CCn1c(CCNC(=O)c2ccc(Cl)c(Cl)c2)nnc1SCCOc1ccc(OC)cc1,active: 16.4 µM,
Cc1ccccc1OCCNC(=O)c1ccc2ccccc2n1,"inconclusive: 10.3 µM [activator, partial curve]",
Cc1ccc(N(CCC#N)C(=O)CSc2nc3ccccc3c(=O)[nH]2)cc1,,inactive: -2.65%
CN(C)c1ccc(/C=C2\CCC/C(=C\c3ccccc3)C2=O)cc1,"inconclusive: 16.4 µM [activator, single point]",
Cn1c2ccccc2c(=O)c2c(=O)n(C3CCCCC3)c(-c3ccco3)nc21,"inconclusive: 20.6 µM [inhibitor, single point]",
CCCOc1ccccc1C1CC(=O)Nc2cc3c(cc21)OCO3 (configuration not stated),"inconclusive: 2.06 µM [inhibitor, partial curve, poor fit]",
COc1cc(NC(=O)CSc2nncn2C)cc(OC)c1OC,"inconclusive: 20.6 µM [inhibitor, single point]",
Cn1nccc1NS(=O)(=O)c1ccc(C(C)(C)C)cc1,"inconclusive: 29.1 µM [inhibitor, single point]",
CCn1c(SCC(=O)Nc2ccc(OCc3ccccc3)cc2)nnc1-c1ccco1,"inconclusive: 29.1 µM [inhibitor, single point]",

SMILES,Potency,"activity change, negative = inhibition"
O=C(O)c1cc2[nH]c3c(c2cc1Cl)CCCC3,,inactive: -17.6%
CC(=O)c1ccc(N2CCN(C(=O)CCCn3c(=S)[nH]c4cc5c(cc4c3=O)OCO5)CC2)cc1,active: 18.4 µM,
O=C(COC(=O)c1nc(Cl)ccc1Cl)NCc1ccccc1,"inconclusive: 29.1 µM [inhibitor, single point]",
Cc1ccc(C2(C)NC(=O)N(CC(=O)Nc3nc(-c4ccccn4)cs3)C2=O)cc1 (configuration not stated),"inconclusive: 20.6 µM [inhibitor, single point]",
O=C(COc1ccc2ccccc2c1)Nc1cccnc1Cl,"inconclusive: 14.6 µM [activator, partial curve]",
CCOC(=O)c1ccc(Nc2nc(C)cc(=O)[nH]2)cc1,"inconclusive: 23.1 µM [activator, partial curve, poor fit]",
CCN(C(=O)COc1ncnc2scc(-c3ccc(F)cc3)c12)C1CCS(=O)(=O)C1 (configuration not stated),,inactive: 0%
CCCNC(=O)C1CC(=O)N(c2ccc(OCc3ccc(F)cc3)cc2)C1 (configuration not stated),"inconclusive: 5.01 µM [activator, partial curve]",
COC(=O)c1ccccc1-c1cn(C)c2ccccc2c1=O,,inactive: -3.58%
CN(C)P(=NC(=O)COc1ccc(Cl)cc1Cl)(N(C)C)N(C)C,"inconclusive: 10 µM [inhibitor, partial curve, poor fit]",
CSc1sc(C(=O)NC(=O)NCc2cccnc2)c(C)c1-c1ccon1,"inconclusive: 18.3 µM [inhibitor, single point]",
Cc1ccc(-c2csc3nnc(SCC(=O)Nc4cccc(C)n4)n23)cc1,,inactive: 6.27%
Cc1ccc(S(=O)(=O)Cc2ccc(C(=O)N3CCN(c4cccc(C)c4C)CC3)o2)cc1,"inconclusive: 9.2 µM [inhibitor, partial curve, poor fit]",
O=[N+]([O-])c1cc(/C=N/O)ccc1Oc1cccc(Cl)c1,"inconclusive: 1.16 µM [activator, single point]",
CCC(=O)Nc1cccc(NC(=O)c2cccc([N+](=O)[O-])c2C)c1,active: 23.1 µM,
COC(=O)C(C#N)c1nc2ccccc2nc1N1CCCC1 (configuration not stated),"inconclusive: 16.4 µM [inhibitor, single point]",
CCOC(=O)c1c(NC(=O)CSc2c[nH]c3ccccc23)sc2c1CCC2,,inactive: 17.9%
O=C(O)C1Cc2ccccc2CN1C(=O)CCl (configuration not stated),"inconclusive: 29.1 µM [inhibitor, single point]",
CC(=O)c1cccc(NC(=O)/C=C/c2ccc([N+](=O)[O-])s2)c1,"inconclusive: 13 µM [activator, partial curve]",
O=c1c2ccccc2oc2ncccc12,"inconclusive: 3.66 µM [inhibitor, single point]",
COc1ccc(CNC(=O)C2=CCN(S(=O)(=O)c3ccc(C)cc3)CC2)cc1,"inconclusive: 14.6 µM [inhibitor, partial curve, poor fit]",
CCOc1ccc2oc(-c3ccccc3)c(C(=O)O)c2c1,,inactive: 3.98%
CCOc1ccccc1N(CC(=O)NCCSCc1ccco1)S(=O)(=O)c1ccccc1,,inactive: -11.8%
Cc1c(Cl)cccc1NC(=O)c1cccc(OC(F)F)c1,"inconclusive: 16.4 µM [activator, partial curve]",

# Single records, as listed above.
# COc1ccc(CNC(=O)C2=CCN(S(=O)(=O)c3ccc(C)cc3)CC2)cc1 as listed: Potency: inconclusive: 14.6 µM [inhibitor, partial curve, poor fit]
# CCN(C(=O)COc1ncnc2scc(-c3ccc(F)cc3)c12)C1CCS(=O)(=O)C1 (configuration not stated) as listed: activity change, negative = inhibition: inactive: 0%

# Next part:

SMILES,Potency,"activity change, negative = inhibition"
O=C(COc1ccccc1-c1ccccc1)NCc1ccco1,"inconclusive: 1.16 µM [inhibitor, single point]",
CCOC(=O)N1CCN(C(=O)Cc2ccc(C)cc2)CC1,"inconclusive: 10.3 µM [activator, partial curve, poor fit]",
Cc1sc2ncnc(SCC(=O)N3CCOCC3)c2c1C,"inconclusive: 8.2 µM [activator, partial curve, poor fit]",
COc1ccc(NC(=O)c2c(C)nn(Cc3ccccc3)c2C)cc1S(=O)(=O)N(C)C,"inconclusive: 11.6 µM [inhibitor, partial curve]",
COc1ccc(OC)c(S(=O)(=O)N(C)CC(=O)N2CCN(c3ccc(F)cc3)CC2)c1,"inconclusive: 25.9 µM [inhibitor, single point]",
Cc1nc2ccccc2n1CC(=O)NCCN1CCOCC1,,inactive: 20.7%
CC(C)Cn1c(N)c(S(=O)(=O)c2cccs2)c2nc3ccccc3nc21,"inconclusive: 18.4 µM [inhibitor, single point]",
COc1cc(NC(=O)c2onc(C)c2Cl)cc(OC)c1OC,,inactive: 12.7%
c1ccc(N2CCN(c3ccccc3)C2c2cccnc2)cc1,,inactive: 8.78%
O=C(O)c1cc2c(ccc3ccccc32)o1,"inconclusive: 29.1 µM [activator, single point]",
O=C(NCCO)c1ccc2[nH]c3c(c2c1)CCCC3,"inconclusive: 29.1 µM [activator, partial curve, poor fit]",
CCC(C)(C)NC(=O)Cc1ccc(C)cc1,"inconclusive: 16.4 µM [activator, single point]",
N#CCCN(C(=O)c1ccco1)c1ccccc1,,inactive: 2.91%
COC(=O)c1ccc(NC(=O)c2ccc(C)cc2)o1,"inconclusive: 20.6 µM [activator, single point]",
Cc1cccc(NC(=S)N2CCN(c3cc(C)ccc3C)CC2)c1,,inactive: -9.24%
Cc1ccc(C(=O)NCC(=O)OC2CCCCC2=O)cc1C (configuration not stated),"inconclusive: 9.2 µM [activator, partial curve, poor fit]",
CCOCCn1c(=NC(=O)CSCC(=O)N2CCOCC2)sc2cc(OC)ccc21,,inactive: -3.61%
Cn1c(SCC(=O)N/N=C/c2ccc([N+](=O)[O-])s2)nnc1-c1ccc(Cl)cc1,"inconclusive: 18.4 µM [inhibitor, single point]",
O=C(NCCC1=CCCCC1)C1CCC(CNS(=O)(=O)c2ccccc2)CC1 (configuration not stated),,inactive: -2.38%
Cc1cc(C)n(-c2cc(N3CCN(C(=O)c4ccc(C(C)(C)C)cc4)CC3)ccc2[N+](=O)[O-])n1,"inconclusive: 29.1 µM [inhibitor, single point]",
O=C(CCNC(=O)c1ccccc1Cl)NCCCSc1ccccc1,,inactive: 15.8%
CN(Cc1cccc(F)c1)C(=O)c1ccc(NS(=O)(=O)c2ccc3[nH]c(=O)[nH]c3c2)cc1,,inactive: 5.32%
CCC(C)(C)C1CCc2c(sc(NC(=O)c3ccoc3C)c2C(N)=O)C1 (configuration not stated),"inconclusive: 18.4 µM [activator, single point]",
O=C(Nc1nnc(-c2cccnc2)o1)c1ccccc1Cl,,inactive: -0.0174%

# Arranged by SMILES length (low to high): some entries from above.
SMILES,Potency,"activity change, negative = inhibition"
O=c1c2ccccc2oc2ncccc12,"inconclusive: 3.66 µM [inhibitor, single point]",
O=C(Cn1cc(C(=O)c2ccco2)c2ccccc21)Nc1ccccc1F,"inconclusive: 29.1 µM [inhibitor, partial curve, poor fit]",
Cc1noc(NS(=O)(=O)c2ccc(NC(=O)/C=C/c3ccc(Br)cc3)cc2)c1C,,inactive: 4.4%
